Experimental data as given in paper doi:10.1101/2024.11.25.625148.
No constants are given. Whether binding was seen depends on the method and setting. Binding seen in cells or lysates may run through a third protein. Here binding means that the protein was enriched with, or labelled near, the bait; the list need not be complete.

By UniProt entry, the sequences of proteins in these tests, tags left out. Residues count along the entry.
UniProt Q8K2C6, residues 37-310: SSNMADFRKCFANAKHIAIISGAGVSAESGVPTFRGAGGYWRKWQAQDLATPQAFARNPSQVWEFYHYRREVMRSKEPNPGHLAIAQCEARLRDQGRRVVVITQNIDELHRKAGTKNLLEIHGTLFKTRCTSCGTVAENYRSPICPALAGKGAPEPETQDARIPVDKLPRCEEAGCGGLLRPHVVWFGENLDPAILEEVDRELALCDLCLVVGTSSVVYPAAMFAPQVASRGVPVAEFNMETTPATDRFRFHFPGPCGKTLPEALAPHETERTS

Target: Sirt5 (mouse (endogenous in HL-1 cells and mouse myocardium)) (UniProt Q8K2C6)
Test: affinity purification with mass spectrometry

- binding: binds
B1: adenine nucleotide translocase 2 (ANT2) (protein, UniProt P51881 1-298)
chain: MTDAAVSFAKDFLAGGVAAAISKTAVAPIERVKLLLQVQHASKQITADKQYKGIIDCVVRIPKEQGVLSFWRGNLANVIRYFPTQALNFAFKDKYKQIFLGGVDKRTQFWRYFAGNLASGGAAGATSLCFVYPLDFARTRLAADVGKAGAEREFKGLGDCLVKIYKSDGIKGLYQGFNVSVQGIIIYRAAYFGIYDTAKGMLPDPKNTHIFISWMIAQSVTAVAGLTSYPFDTVRRRMMMQSGRKGTDIMYTGTLDCWRKIARDEGSKAFFKGAWSNVLRGMGGAFVLVLYDEIKKYT
